The record followed here is patent US20030004092A1.

The chains behind the UniProt entries cited, without tags or fusion partners.
UniProt P01108: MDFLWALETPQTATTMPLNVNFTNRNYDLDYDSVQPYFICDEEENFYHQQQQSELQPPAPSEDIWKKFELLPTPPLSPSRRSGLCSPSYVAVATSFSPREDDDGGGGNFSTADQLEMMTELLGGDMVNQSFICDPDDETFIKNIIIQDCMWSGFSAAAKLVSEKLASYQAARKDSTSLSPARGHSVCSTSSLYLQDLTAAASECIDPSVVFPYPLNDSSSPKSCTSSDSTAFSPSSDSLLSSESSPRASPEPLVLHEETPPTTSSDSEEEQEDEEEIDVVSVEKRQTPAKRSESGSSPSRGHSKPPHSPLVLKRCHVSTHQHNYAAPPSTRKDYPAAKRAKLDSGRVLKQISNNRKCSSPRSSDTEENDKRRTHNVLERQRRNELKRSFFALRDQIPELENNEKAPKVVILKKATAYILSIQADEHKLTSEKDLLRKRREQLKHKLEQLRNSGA
UniProt P01106: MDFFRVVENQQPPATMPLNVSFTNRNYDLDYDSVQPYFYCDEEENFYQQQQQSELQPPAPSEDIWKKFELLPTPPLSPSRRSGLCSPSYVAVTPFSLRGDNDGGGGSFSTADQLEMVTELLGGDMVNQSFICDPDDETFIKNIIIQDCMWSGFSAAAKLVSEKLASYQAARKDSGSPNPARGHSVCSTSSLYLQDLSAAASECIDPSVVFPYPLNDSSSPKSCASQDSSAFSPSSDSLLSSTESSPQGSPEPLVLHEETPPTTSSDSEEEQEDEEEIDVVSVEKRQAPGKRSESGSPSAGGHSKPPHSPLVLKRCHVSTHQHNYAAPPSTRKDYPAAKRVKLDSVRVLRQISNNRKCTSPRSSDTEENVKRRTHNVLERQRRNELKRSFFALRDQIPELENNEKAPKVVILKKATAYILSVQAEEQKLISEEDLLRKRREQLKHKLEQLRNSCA

In assay [1] the target is T1, GST-cdr2 fusion protein containing amino acids 16-192 of human cdr2 (human) (UniProt Q01850).
T1 sequence: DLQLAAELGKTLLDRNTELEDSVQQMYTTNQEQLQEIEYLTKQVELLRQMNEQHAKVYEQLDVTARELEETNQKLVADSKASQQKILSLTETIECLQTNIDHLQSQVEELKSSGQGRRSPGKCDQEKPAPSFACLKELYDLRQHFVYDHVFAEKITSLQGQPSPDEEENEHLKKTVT
As to the kind of experiment: GST pull-down, fluorography.

Assay [2] concerns the target c-Myc in mouse cerebellum (mouse) (UniProt P01108). Briefly: co-immunoprecipitation with anti-Myc rabbit polyclonal antibody, Western blot with PCD serum.
Assay [3] has the same target. Briefly: co-immunoprecipitation with Myc antibodies, Western blot. In general terms: In western blotting, separated proteins are transferred to a membrane and probed.
Assay [4] deals with Myc (clone from pJG4-5-based HeLa cDNA library, B42 activation domain fusion protein) (not stated (clone from a HeLa cDNA library)) (UniProt P01106). Briefly: yeast two-hybrid, lacZ reporter.
Assay [5] shares this target. Briefly: yeast two-hybrid.
Assay [6] has the same target. As to the kind of experiment: yeast two-hybrid, growth on Leu- media and β-gal expression.
For assay [7] the target is unchanged. As to the kind of experiment: yeast two-hybrid, growth on leu- medium.

No constants are given. Whether binding was seen depends on the method and setting. For some of these results: Binding seen in cells or lysates may run through a third protein. Some entries that bind do so weakly or less than the wild type. For some of these results: Sequences can lack the tags named with a protein.

B1: full length in vitro translated ^35S-labeled mouse cdr2 (protein, UniProt P97817 1-455, looked up)
chain: MLADNLVEEFEMEDEPWYDHRDLQQDLQLAAELGKTLLDRNTELEDSLQQMYTTNQEQLQEIEYLTKQVELLRQMNEQHAKVYEQLDVTARELEETNQKLVAESKASQQKILSLTETIECLQTNIDHLQSQVEELKSSSQGRGRQKACDQEKPAPSFSCLKELYDLRQHFVYDHVFAEKITSLQSQQSPDEEENEHLKKAVTMLQAQLSLERKKRVSVEAEYKVVLKENSELEQQLGATDAYRARALELEAEVAEMRQMLQAEHPFVNGVEKLVPDSLFVPFKEPSQSLLEEMFLAAPEAPRKPLKRSSSETALSSLAGDDIVKDHEDTCIRRAKAVKQRGISLLHEVDTQYSALKVKYEELLKKCQQEQDSLSHKAVQTSRLLTRDLTGLVTQSEAGASGWEPTPVSPESISSPTTTPPEYKALFKEIFSCIKKTKQEIDEQRTKYPSLSSYSY
modifications: ^35S-L-methionine label
Turning to B1, the binding entry in assay [1] is listed as “binds”.

B2: cdr2 protein in mouse cerebellum (protein, UniProt P97817 1-455, looked up)
chain: MLADNLVEEFEMEDEPWYDHRDLQQDLQLAAELGKTLLDRNTELEDSLQQMYTTNQEQLQEIEYLTKQVELLRQMNEQHAKVYEQLDVTARELEETNQKLVAESKASQQKILSLTETIECLQTNIDHLQSQVEELKSSSQGRGRQKACDQEKPAPSFSCLKELYDLRQHFVYDHVFAEKITSLQSQQSPDEEENEHLKKAVTMLQAQLSLERKKRVSVEAEYKVVLKENSELEQQLGATDAYRARALELEAEVAEMRQMLQAEHPFVNGVEKLVPDSLFVPFKEPSQSLLEEMFLAAPEAPRKPLKRSSSETALSSLAGDDIVKDHEDTCIRRAKAVKQRGISLLHEVDTQYSALKVKYEELLKKCQQEQDSLSHKAVQTSRLLTRDLTGLVTQSEAGASGWEPTPVSPESISSPTTTPPEYKALFKEIFSCIKKTKQEIDEQRTKYPSLSSYSY
For B2, the binding entry in assay [2] and in assay [3] was “binds” in each case.

B3: LexA/cdr2^65-140 bait construct (protein, not shown: large carriers)
chain: MNEQHAKVYEQLDVTARELEETNQKLVADSKASQQKILSLTETIECLQTNIDHLQSQVEELKSSGQGRRSPGKCDQ
Regarding B3, the binding entry in assay [4], in assay [5], in assay [6] and in assay [7] was “binds” each time.
